Measurements reported in PubChem BioAssay AID652259 (Drosophila RNAi Screening Center, 2013).
Purpose: 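Identify new Wingless signalling regulators in fly cells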 (primary screen). Cell system: Drosophila clone 8 imaginal disc epithelial cells. Reagent: long dsRNA against Drosophila genes. Conditions: pathway stimulated by co-transfected Wingless expression plasmid. Detection: 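Firefly luciferase from a tcf-site Wingless reporter, measured alongside co-transfected Renilla luciferase that tracks transfection; pathway stimulated by a Wingless plasmid; the firefly-to-Renilla ratio is not deposited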. Reading the numbers: firefly reporter light: higher = more Wg reporter light, before normalisation; Renilla control light: higher = more transfected or surviving cells. Active means: 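a knock-down is a candidate when at least two out of four statistical tests show it departing from its plate mean; one test alone signals a weak candidate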. Meaning of the calls: active = candidate regulator (raises or lowers reporter); inactive = not a candidate.
The deposit covers about 22,000 reagents; shown is a random part of those with a known target gene and a result. Of all reagents, 233 (1.1%) were called active. 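Light values are raw, unnormalised plate reads; the ratio scores behind the reporter calls were not deposited.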 A number with no mark means an inactive call. Names joined by + are all predicted targets of the reagent. Reagent sequences are not shown. Not given: the amount of reagent, the time to read-out, the dose of the treatment.

| target gene | dsRNA | firefly reporter light, replicate 1 | firefly reporter light, replicate 2 | Renilla control light, replicate 1 | Renilla control light, replicate 2 |
| --- | --- | --- | --- | --- | --- |
| CG16800 (GeneID 34693) | DRSC02518 | 3101 | 8205 | 1317 | 4003 |
| stum (GeneID 37473) | DRSC04268 | 2082 | 8333 | 877 | 3175 |
| stum (GeneID 37473) | DRSC04270 | 2711 | 8194 | 829 | 2849 |
| Or23a (GeneID 33450) | DRSC00767 | 2016 | 6097 | 1097 | 2524 |
| ND-B15 (GeneID 36640) | DRSC06199 | 9312 | – | 2744 | – |
| CG13698 (GeneID 40000) | DRSC10047 | 3782 | – | 1513 | – |
| CG32483 (GeneID 318050) | DRSC07902 | 2321 | – | 544 | – |
| CG10265 (GeneID 36676) | DRSC05986 | 11749 | – | 3707 | – |
| CG10265 (GeneID 36676) | DRSC21680 | 8.55e5 | 7.68e5 | 4.16e5 | 3.77e5 |
| CG17782 (GeneID 42912) | DRSC15267 | 21956 | – | 13624 | – |
| CG8003 (GeneID 39210) | DRSC10946 | 4524 | – | 2248 | – |
| CG32112 (GeneID 317860) | DRSC09815 | 6375 | – | 3413 | – |
| BigH1 (GeneID 41780) | DRSC15491 | 4592 | – | 1977 | – |
| Obp18a (GeneID 32897) | DRSC19736 | 19128 | – | 10938 | – |
| CG3909 (GeneID 41226) | DRSC14150 | 11056 | – | 2161 | – |
| cos (GeneID 35653) | DRSC07598 | 11638 | – | 3856 | – |
| CG33325 (GeneID 2768664) | DRSC12699 | 4070 | – | 1488 | – |
| Idua (GeneID 34544) | DRSC02941 | 6219 | – | 2698 | – |
| Prosbeta2 (GeneID 39628) | DRSC11257 | 3556 | – | 1485 | – |
| CG32085 (GeneID 39311) | DRSC10138 | 8656 | – | 3046 | – |
| CG32085 (GeneID 39311) | DRSC10139 | 9909 | – | 4005 | – |
| CG32085 (GeneID 39311) | DRSC10576 | 4544 | – | 2528 | – |
| CG5770 (GeneID 37054) | DRSC06954 | 17952 | – | 6256 | – |
| AANATL4 (GeneID 37213) | DRSC06774 | 3816 | – | 1747 | – |
| CG8468 (GeneID 36577) | DRSC07190 | 7680 | – | 2970 | – |
| CG15386 + CG42371 | DRSC00400 | 2619 | 5744 | 1201 | 2625 |
| CG31370 (GeneID 43060) | DRSC21453 | 5.29e5 | 5.32e5 | 1.90e5 | 1.94e5 |
| SPE (GeneID 42791) | DRSC15135 | 1989 | 7680 | 1256 | 2187 |
| CG13689 (GeneID 33241) | DRSC00358 | 2538 | 7675 | 890 | 2914 |
| CG7745 (GeneID 36210) | DRSC07037 | 9463 | – | 1226 | – |
| CG4582 (GeneID 43086) | DRSC15605 | 16201 | – | 13972 | – |
| Adar (GeneID 31130) | DRSC17725 | 14752 | – | 13325 | – |
| CG1090 (GeneID 40551) | DRSC12150 | 8157 | – | 4112 | – |
| CG1090 (GeneID 40551) | DRSC21604 | 6.26e5 | 6.54e5 | 3.28e5 | 2.39e5 |
| CG9775 (GeneID 40576) | DRSC12330 | 8805 | – | 3894 | – |
| CG9775 (GeneID 40576) | DRSC22667 | 4.62e5 | 5.18e5 | 1.28e5 | 1.07e5 |
| DppIII (GeneID 40996) | DRSC16241 | 17885 | – | 5408 | – |
| cold (GeneID 33237) | DRSC00538 | 9884 | – | 4533 | – |
| SdhD (GeneID 42808) | DRSC14215 | 27058 | – | 17412 | – |
| Glut1 (GeneID 38109) | DRSC07927 | 2700 | – | 616 | – |
| Glut1 (GeneID 38109) | DRSC08378 | 4107 | – | 1938 | – |
| Glut1 (GeneID 38109) | DRSC08662 | 15776 | – | 5541 | – |
| CG4766 (GeneID 31533) | DRSC17736 | 28680 | – | 13048 | – |

Continued, starting with the last 10 of the part before.
| target gene | dsRNA | firefly reporter light, replicate 1 | firefly reporter light, replicate 2 | Renilla control light, replicate 1 | Renilla control light, replicate 2 |
| --- | --- | --- | --- | --- | --- |
| CG1090 (GeneID 40551) | DRSC21604 | 6.26e5 | 6.54e5 | 3.28e5 | 2.39e5 |
| CG9775 (GeneID 40576) | DRSC12330 | 8805 | – | 3894 | – |
| CG9775 (GeneID 40576) | DRSC22667 | 4.62e5 | 5.18e5 | 1.28e5 | 1.07e5 |
| DppIII (GeneID 40996) | DRSC16241 | 17885 | – | 5408 | – |
| cold (GeneID 33237) | DRSC00538 | 9884 | – | 4533 | – |
| SdhD (GeneID 42808) | DRSC14215 | 27058 | – | 17412 | – |
| Glut1 (GeneID 38109) | DRSC07927 | 2700 | – | 616 | – |
| Glut1 (GeneID 38109) | DRSC08378 | 4107 | – | 1938 | – |
| Glut1 (GeneID 38109) | DRSC08662 | 15776 | – | 5541 | – |
| CG4766 (GeneID 31533) | DRSC17736 | 28680 | – | 13048 | – |
| CG30196 (GeneID 37595) | DRSC04156 | 2865 | 10499 | 720 | 4227 |
| CalpB (GeneID 39165) | DRSC11109 | 3959 | – | 1496 | – |
| Lsd-1 (GeneID 42810) | DRSC14236 | 3010 | 10906 | 1872 | 2346 |
| CG5112 (GeneID 43083) | DRSC15718 | 2016 | 5831 | 1248 | 3417 |
| RpS29 + snoRNA:Psi18S-1275 | DRSC16433 | 8064 | – | 2587 | – |
| SoxN (GeneID 44275) | DRSC03440 | 4499 | 8726 | 1723 | 4656 |
| SoxN (GeneID 44275) | DRSC21779 | 6.08e5 | 5.52e5 | 1.85e5 | 1.40e5 |
| Myt1 (GeneID 38649) | DRSC11228 | 1831 | 7580 | 973 | 1776 |
| CG30391 (GeneID 37423) | DRSC21572 | 5.31e5 | 5.42e5 | 2.18e5 | 1.76e5 |
| egr (GeneID 36054) | DRSC06233 | 3002 | 5873 | 980 | 3014 |
| CG34030 (GeneID 3885636) | DRSC08866 | 2313 | – | 1571 | – |
| tbrd-3 (GeneID 246604) | DRSC04295 | 2488 | 4976 | 662 | 1104 |
| CCHa1 (GeneID 41711) | DRSC14821 | 13465 | – | 2368 | – |
| Mipp1 (GeneID 39841) | DRSC11223 | 3800 | – | 1544 | – |
| CR43105 (GeneID 12798480) | DRSC05547 | 22144 | – | 14117 | – |
| RhoU (GeneID 31945) | DRSC17635 | 5049 | – | 2035 | – |
| RhoU (GeneID 31945) | DRSC17803 | 11531 | – | 6752 | – |
| RhoU (GeneID 31945) | DRSC17804 | 26125 | 7.20e5 | 13546 | 3.27e5 |
| RhoU (GeneID 31945) | DRSC22159 | 7.57e5 | 7.50e5 | 3.14e5 | 3.14e5 |
| RhoU (GeneID 31945) | DRSC22396 | 7.24e5 | 7.17e5 | 3.07e5 | 2.62e5 |
| fig (GeneID 43511) | DRSC16270 | 5732 | – | 2326 | – |
| pie (GeneID 44315) | DRSC03590 | 6320 | – | 1303 | – |
| CG6843 (GeneID 40062) | DRSC10725 | 13218 | – | 2304 | – |
| Plzf (GeneID 34622) | DRSC02994 | 14950 | – | 2438 | – |
| dmGlut (GeneID 47253) | DRSC02835 | 9725 | – | 2288 | – |
| BG642163 (GeneID 4379888) | DRSC00342 | 4505 | 6400 | 1285 | 2118 |
| BG642163 (GeneID 4379888) | DRSC00343 | 2946 | 8560 | 1232 | 2780 |
| CR32821 + CR43381 + CR43377 + 1 more | DRSC22544 | 6.02e5 | 6.19e5 | 2.18e5 | 1.53e5 |
| m-cup (GeneID 42076) | DRSC14430 | 10836 | – | 2939 | – |
| Klp31E (GeneID 34422) | DRSC03354 | 20077 | – | 1283 | – |
